The results in this text go back to publication PMC11840119.

For this test, the target named is T1, Lon protease 1 (LONP1) (human (endogenous in PC3 and DU145)) (UniProt P36776).
T1 sequence: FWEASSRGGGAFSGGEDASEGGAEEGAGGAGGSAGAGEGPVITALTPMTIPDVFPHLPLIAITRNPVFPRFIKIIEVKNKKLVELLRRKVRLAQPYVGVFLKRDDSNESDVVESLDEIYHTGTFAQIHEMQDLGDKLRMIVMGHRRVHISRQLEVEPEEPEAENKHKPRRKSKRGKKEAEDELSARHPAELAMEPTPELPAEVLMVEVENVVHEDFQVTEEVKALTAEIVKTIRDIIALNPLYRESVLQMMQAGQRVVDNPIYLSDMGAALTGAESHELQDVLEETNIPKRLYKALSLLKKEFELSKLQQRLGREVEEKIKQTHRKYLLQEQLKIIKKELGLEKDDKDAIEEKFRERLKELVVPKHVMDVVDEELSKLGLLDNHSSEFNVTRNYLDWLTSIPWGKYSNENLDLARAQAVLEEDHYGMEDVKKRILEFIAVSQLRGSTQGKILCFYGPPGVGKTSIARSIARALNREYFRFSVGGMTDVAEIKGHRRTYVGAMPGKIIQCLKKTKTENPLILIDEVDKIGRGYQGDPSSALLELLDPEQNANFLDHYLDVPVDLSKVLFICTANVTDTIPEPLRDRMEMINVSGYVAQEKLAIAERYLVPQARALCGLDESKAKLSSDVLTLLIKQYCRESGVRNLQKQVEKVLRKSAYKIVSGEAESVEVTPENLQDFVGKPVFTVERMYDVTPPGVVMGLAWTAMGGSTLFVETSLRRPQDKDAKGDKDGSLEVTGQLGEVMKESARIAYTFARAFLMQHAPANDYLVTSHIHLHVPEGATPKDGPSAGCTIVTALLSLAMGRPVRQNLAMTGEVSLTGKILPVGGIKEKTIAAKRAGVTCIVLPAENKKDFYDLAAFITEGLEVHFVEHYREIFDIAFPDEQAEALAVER
As to the kind of experiment: co-IP; endogenous proteins in whole cell lysates of PC3 and DU145 cells; lysis buffer 1% NP-40, 50 mM Tris-HCl pH 7.4, 150 mM NaCl, 5 mM EDTA, 0.02% SDS; primary antibody or IgG control overnight at 4 °C, protein A/G agarose beads, PBS washes, Western blot.

No constants are given. Whether binding was seen depends on the method and setting. In cells and extracts the contact can be indirect. Some binding calls cover weakened binding; strength is not graded here.

B1: mitochondrial pyruvate carrier 1 (MPC1) (protein, UniProt Q9Y5U8 1-109)
chain: MAGALVRKAADYVRSKDFRDYLMSTHFWGPVANWGLPIAAINDMKKSPEIISGRMTFALCCYSLTFMRFAYKVQPRNWLLFACHATNEVAQLIQGGRLIKHEMTKTASA
As for B1, the binding entry is on record as “binds”.
